This experiment relates to Plasmodium falciparum (KI), erythrocytic stages. The experiment in a line: In vitro growth inhibition assay of P. falciparum, [3H]-hypoxanthine incorporation. The experiment is classed as cell-based. The note with it: read-out: IC50 against Plasmodium falciparum. The text has this: Each of the nucleoside analogues was examined for in vitro activity against four parasites, T.b. rhodesiene, T. cruzi, L. donovoni and P. falciparum, as well as for cytotoxicity toward the L6 rat myoblast cell line.
All IC50 values are expressed as micromolar. Cytotoxicity (L6 rat myoblast cells); average of duplicate determinations. Trypanosoma brucei rhodesiense (STIB900); average of duplicate determinations. Selectivity index for T.b. rhodesiense (SIr); expressed as the ratio [IC50 (L6/IC50 (T.b. rhodesiense)]. Plasmodium falciparum ([…], resistant to chloroquine); average of duplicate determinations. Selectivity index for P. falciparum (SIp), expressed as the ratio [IC50 (L6/IC50 (P. falciparum)]. Leishmania donovani (MHOM/SD/62/IS-CL2D) axenic amastigotes; average of duplicate determinations. Selectivity index for L. donovani (SIL), expressed as the ratio [IC50 (L6/IC50 (L. donovani)]. Trypanosoma cruzi; average of duplicate determinations. Selectivity index for T. cruzi (SIC), expressed as the ratio [IC50(L6/IC50(T. cruzi)]. IA. Nucleoside analogs designed to be activated via Pathway I. IB. Nucleoside analogs designed to be activated via Pathway II. Phth=phthalimido.
In vitro growth inhibition assay of P. falciparum (KI). The determination of IC50 values against erythrocytic stages of P. falciparum was carried out in duplicate using the [^3H]-hypoxanthine incorporation assay.^58,59

Structures are written as SMILES.

Consider `CCN(CC)CCCC(C)Nc1ccnc2cc(Cl)ccc12` (stereo not shown) [chloroquine, reference compound], for which the IC50 stood at 71 nM.

Values taken from patent US20180037601A1, “Nucleoside-Based Anti-Bacterial and Anti-Protozoan Drugs” (UTI Limited Partnership, priority 2015, published 2018).
